This note sets out measurements from PubChem BioAssay AID2685 (National Center for Advancing Translational Sciences (NCATS), 2010).

A short description of this experiment: qHTS Assay for Lipid Storage Modulators in Drosophila S3 Cells.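 For cell number change: cells counted by Cell Tracker Red CMTPX staining in the red channel.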 As to conditions: BODIPY lipid droplet fluorescence, 18-24 h; for cell number change: measured here: cell count max response, cells fed with added oleic acid. In outline: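 Laser-scanning cytometry quantifies lipid droplet accumulation (500–530 nm total intensity; droplet/cell object ratio) in oleic acid-fed (400 uM added) Drosophila S3 cells treated with a concentration series. 20 uM Triacsin C defined 100% inhibition.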

[1] abbreviates: measured here: lipid fluorescence (Fed channel) AC50, cells fed with added oleic acid.
[2] abbreviates: measured here: cell number channel AC50, cells fed with added oleic acid.

The structures appear in SMILES notation. Some of the results follow. The main result of the screen is listed elsewhere. These columns were measured beside it and carry no call. Most of these compounds were active or inconclusive in the main read-out, so they are no random draw. The note in brackets gives the kind of curve behind each potency; many fits are weak.

In general, AC50 refers to the concentration giving half of the maximal activity seen. High values mean activity only at high concentration, low ones activity at low concentration. Consider `O=C(COC(=O)Cc1cccc(F)c1)NCCc1ccccc1`, for which the cell number change is 5.87%. Besides, under setting [1], the AC50 is 0.206 µM [rising, full curve, poor fit].

Turning to `CCc1ccc(NC(=O)N2CCN(C(=O)C3CCCO3)CC2)cc1` (stereo not given), the cell number change stood at 26.5%. Further, under setting [1], the AC50 is 13 µM [rising, partial curve].

For `Cc1ccc(C)c(OCCn2cc(/C=C(\C#N)C(=O)NCc3ccco3)c3ccccc32)c1`, the cell number change was 42.4%. In addition, the AC50 under setting [2] was 25.9 µM [rising, single point]. In addition, the AC50 under setting [1] was 18.4 µM [rising, single point].

For the compound `CCOC(=O)[C@@H]1[C@H]2COc3cc(OC)ccc3[C@@H]2N2C(=O)N(c3cccc(C)c3)C(=O)[C@@]12C`, the cell number change turned out to be 6.29%. The AC50 under setting [1] was 29.1 µM [rising, single point].

Turning to `COc1ccc(CNC(=O)CN(Cc2ccc(C)cc2)C(=O)c2csnn2)cc1`, the cell number change stood at 17.9%. Also, under setting [1], the AC50 is 6.51 µM [rising, single point].

As to `CCCCNC(=O)CCC(=O)Nc1ccc2nc(N3CCC(C)CC3)cc(C)c2c1`, the cell number change is -28.3%.

For `CSc1ccccc1OCc1cc(C(=O)N2CCC(Oc3cccnc3)CC2)no1`, the cell number change was -13.1%. Moreover, under setting [1], the AC50 is 11.6 µM [falling, partial curve].

Turning to `Cc1ccc(N2C(=O)N(CC(=O)N3c4ccccc4CC3C)C(=O)C2C)cc1` (stereo not given), the cell number change is -16.4%. Besides, under setting [1], the AC50 is 4.11 µM [rising, partial curve].

Take `CCc1nnc(NC(=O)C2CCN(C(=O)c3ccccc3C)CC2)s1`: the cell number change worked out at 37%. Also, under setting [2], the AC50 was 14.6 µM [rising, single point].

Take `CC(C)CN(CCOc1cccc(N2C(=O)C3=C(CCCC3)C2=O)c1)CC(C)C`: the cell number change was 19.8%. Further, the AC50 under setting [1] was 20.6 µM [rising, single point].

Consider `COCCNCCCCOc1ccccc1-c1ccccc1`, for which the cell number change was determined as 86.4%. Under setting [2], the AC50 is 5.8 µM [rising, full curve]. Besides, the AC50 under setting [1] is 29.1 µM [rising, single point].

For `Cn1c(=O)oc2ccc(C(=O)CSc3nnnn3-c3ccccc3)cc21`, the cell number change is -22.9%. The AC50 under setting [1] is 0.00411 µM [rising, full curve, poor fit].

With `Cc1ccccc1OCC(=O)N=Nc1c(O)n(C)c2ccccc12`, the cell number change stood at 7.36%. In addition, the AC50 under setting [1] was 4.11 µM [rising, full curve, poor fit].

Consider `Cc1cc(C)cc(NC(=O)CCN2C(=O)c3ccccc3C2=O)c1`, for which the cell number change is 4.72%.

On to `O=[N+]([O-])c1ccc(/C=N\NS(=O)(=O)c2ccc(F)cc2)o1`, for which the cell number change was 70.3%. For the same compound, the half-maximal activity concentration (AC50) under setting [2] was 29.1 µM [rising, single point]. For the same compound, the AC50 under setting [1] was 29.1 µM [rising, single point].

As for `c1ccc(C[C@H]2CNCCN2CC2(c3ccccc3)CC2)cc1`, the cell number change was -1.58%. The AC50 under setting [1] was 3.26 µM [falling, single point].

Take `O=C(Nc1ncccc1O)c1ccc2ccccc2c1`: the cell number change was 13%. Moreover, the AC50 under setting [2] is 2.31 µM [rising, partial curve, poor fit]. Besides, the AC50 under setting [1] was 29.1 µM [falling, single point].

Turning to `COc1ccc(CCNC(=O)c2ccc3nc(N4CCCCC4)sc3c2)cc1OC`, the cell number change is -33.2%. Also, the AC50 under setting [2] is 20.6 µM [falling, single point].

As to `N#Cc1c(N2CCN(C(=O)c3ccco3)CC2)nc(-c2ccccc2)c2c1CCCC2`, the cell number change is -39.6%. The AC50 under setting [2] was 29.1 µM [falling, single point]. The concentration at half-maximal activity (AC50) under setting [1] was 29.1 µM [falling, single point].

In the case of `O=C(N/N=C/c1ccncc1)c1ccccn1`, the cell number change was -39%. For the same compound, the AC50 under setting [2] was 14.6 µM [falling, partial curve, poor fit].

Turning to `CNC(=O)c1ccccc1NC(=O)c1ccc(C)c(S(=O)(=O)N2CCCCC2)c1`, the cell number change is -27%.

On to `CCCN(CCC)CCNS(=O)(=O)c1ccc2c(c1)CCN2C(=O)C1CCC1`, for which the cell number change amounted to 6.97%. Also, under setting [1], the AC50 was 0.146 µM [falling, full curve, poor fit].

With `CCOC(=O)c1c(NC(=O)COc2ccccc2OCC)sc2c1CC(C)(C)NC2(C)C`, the cell number change is -65.9%. The AC50 under setting [2] was 20.6 µM [falling, partial curve].

As to `O=C(OCCN=C1NS(=O)(=O)c2ccccc21)c1cccs1`, the cell number change came to 4.93%. In addition, the AC50 under setting [2] is 0.00411 µM [rising, full curve, poor fit]. Further, the AC50 under setting [1] is 6.51 µM [rising, single point].

As for `NC(=O)c1ccc(NC(=O)CCCN2C(=O)NC3(CCCC3)C2=O)cc1`, the cell number change is -9.77%. The AC50 under setting [1] is 20.6 µM [rising, single point].

In the case of `CCC1CN(C(=O)N2CCC(C(=O)NCc3ccccc3OC)CC2)c2cc(C)ccc2O1` (stereo not given), the cell number change was -15.3%. Further, the AC50 under setting [1] is 6.51 µM [rising, single point].

For `COc1ccc(-n2ncc(C(C)NS(=O)(=O)c3cccs3)c2C)cc1` (stereo not given), the cell number change is 6.25%.

Take `CCOC(=O)C1(CCOc2ccccc2)CCN(Cc2ccc(CO)o2)CC1`: the cell number change is -16.5%.

`CC(C)(C)C(=O)Nc1ccc(-c2nnc3n2CCCCC3)cc1`: the cell number change is 13%. Further, the concentration at half-maximal activity (AC50) under setting [1] is 0.103 µM [rising, full curve, poor fit].

For the compound `COc1ccc(CC(C)CC(=O)NCCc2ccc(OC)c(OC)c2)cc1` (stereo not given), under setting [2], the AC50 is 0.116 µM [rising, full curve, poor fit].

As to `CCOC(=O)CNc1ccc(OC(F)(F)F)cc1`, the cell number change was -20.6%. For the same compound, the AC50 under setting [2] is 0.58 µM [falling, single point].

As for `Fc1ccc(CNC(=S)Nc2ccccc2Cl)cc1`, the cell number change was found to be 37.1%. Moreover, the AC50 under setting [2] is 29.1 µM [rising, single point].

In the case of `N#Cc1ccc(CN2CCN(C(=O)c3ccc(S(=O)(=O)N4CCCCCC4)cc3)CC2)cc1`, the cell number change is -10.9%.

Turning to `O=C(NN1CCOCC1)c1ccc(Cl)c(Cl)c1`, the cell number change is -9.19%. For the same compound, the AC50 under setting [1] was 16.4 µM [falling, single point].

`O=C(O)CCN1C(=O)/C(=C2\C(=O)N(Cc3ccccc3Cl)c3ccccc32)SC1=S`: the cell number change amounted to 22%. The AC50 under setting [1] was 11.6 µM [rising, partial curve, poor fit].

As to `O=C(COC(=O)c1ccco1)c1ccc(Cl)cc1`, under setting [1], the concentration at half-maximal activity (AC50) was 6.51 µM [rising, single point].

On to `CC(C)(C)c1nn(-c2ccccc2)c2[nH]c(=O)c(CNCc3ccco3)cc12`, for which the cell number change was -20.9%. The AC50 under setting [1] is 7.31 µM [falling, single point].

Take `Cc1ccc(CNC(=O)c2ccc(NC3=NC4CS(=O)(=O)CC4S3)cc2)cc1` (stereo not given): the cell number change came to 20.7%.

On to `COc1ccc(C2=NS(=O)(=O)N(C)C(C(=O)N3CCc4ccccc4C3)=C2)cc1OC`, for which the cell number change was -30.5%. Further, the AC50 under setting [2] was 20.6 µM [falling, partial curve, poor fit].
